Measured values reported in patent publication US20240103005A1, “N-ACRYLOYLINDOLES AND METHODS OF USE” (The University of Hong Kong, priority 2022, published 2024).
Some values come without a unit; they compare only within their column.

Key:
231MFP cell lysates = assay: MS-based ABPP with MudPIT to identify liganded cysteines in 231MFP cell lysates; assay type: biochemical, human
HepG2 cell lysates = assay: MS-based ABPP to identify liganded cysteines in HepG2 cell lysates; assay type: biochemical, human; conditions: for average number of peptides with probe modifications: triplicate; for labeled proteins not on the list of DrugBank (non-DrugBank proteins): DrugBank database analysis
Method: MS-Based ABPP Experiments to Identify Liganded Cysteines in HepG2 Cell Lysates by NAIA-5 or IAA.
HepG2 cells were lysed in PBS by sonication. After BCA assay and protein normalization, HepG2 cell lysates in PBS (2 mg/mL, 2 mL) were incubated with NAIA-5 and IAA (10 μM), respectively, at room temperature for 1 h with vortexing. Then, the samples were incubated with a master mix solution for CuAAC reaction, containing CuSO4, TBTA, DTB-PEG-azide and TECP (final concentrations are 1 mM, 100 μM, 100 μM and 1 mM respectively). After incubation at room temperature for 1 h with vortexing, pre-chilled acetone (12 mL) was added to the samples and proteins were allowed to precipitate out by storing at −20° C. overnight. The samples were centrifuged at 5,000 g at 4° C. for 10 min, and the supernatant was discarded. The protein pellets labeled by NAIA-5 and IAA were then combined and washed with pre-chilled methanol twice. The protein pellets were then re-dispersed in 1.2% SDS in PBS (w/v), followed by heating at 80° C. for 5 min. Any insoluble solids were discarded by centrifugation at 6,500 g for 5 min, and the supernatant were transferred to PBS solution containing Pierce™ Streptavidin Agarose beads (20349; Thermo Scientific) with final concentration of SDS equal to 0.2% (w/v). The samples and beads were incubated at 4° C. with rotation overnight. The beads were then washed with PBS and water, and re-dispersed in 6M urea in PBS. The samples were reduced by TCEP (1 mM) at 65° C. for 20 min, followed by alkylation with iodoacetamide (18 mM) at 37° C. for 30 min in dark. The beads were then spun down by centrifugation at 1,400 g for 2 min, washed with PBS and re-suspended in 2M urea in PBS. The proteins on the beads were then digested by sequencing grade trypsin (Promega) at 37° C. overnight. After tryptic digestion, the beads were spun down by centrifugation at 1,400 g for 2 min and the supernatant was discarded. The beads were washed thrice with PBS and thrice with water, followed by the addition of elution buffer solution (MeCN/H2O, 1:1, v/v; with 0.1% formic acid) to the beads and incubation for 5 min at 37° C. The probe-modified peptides were eluted out from the beads and the supernatant was collected. The beads were incubated with a new elution buffer solution, spun down and the supernatant solution was combined with the previous solution. The combined solution containing the eluted probe-modified peptides were dried and desalted by C18 Stage tips, and the peptides (200 ng) were sent for LC-MS/MS analysis using Aurora C18 UHPLC column (75 μm i.d.×25 cm length×1.6 μm particle size; IonOpticks, Australia) coupled to timsTOF Pro mass spectrometer (Bruker).
Chromatographic separation was carried out using buffer A (buffer A: 98:2 water:acetonitrile, 0.1% formic acid) and B (acetonitrile: 0.1% formic acid) with the gradient from 98% buffer A to 30% buffer B at a flow rate of 300 nL/min over 100 min, followed by an increase from 30% to 44% buffer B over 5 min, an increase to 95% buffer B in 0.5 min, an isocratic gradient of 95% buffer B over 8.5 min, a decrease of buffer B to 2% in 0.5 min and then an isocratic gradient of 2% buffer B for 5.5 min. MS data was collected over a m/z range of 100 to 1700, and MS/MS range of 100 to 1700. During MS/MS data collection, each TIMS cycle was 1.1 s and included 1 MS+an average of 10 PASEF MS/MS scans.
The data was searched against the Uniprot human database using MaxQuant v2.0.3.0, specified with trypsin digestion (allowed up to 3 missed cleavages) and cysteine carbamidomethylation (+57.02146) as a static modification. The search also allowed up to 5 variable modifications for methionine oxidation (+15.99491), N-terminal acetylation (+42.01056), cysteine modification by NAIA-5 (+681.38500) or cysteine modification by IAA (+494.32167). The peptide false discovery rate (FDR) was set to 1%. […]

## C#CCCCCNC(=O)COc1cccc2c1ccn2C(=O)C=C [NAIA-4]
231MFP cell lysates; 100 μM, 1 h, MudPIT
  number of probe-modified peptides: 18,241
  number of proteins uniquely profiled (not by IAA): ~1,800
  population of cysteines profiled: 6,692
231MFP cell lysates; Gene Ontology analysis
  number of biological processes regulated by proteins profiled by the probe only: 292

## C#CCCCCNC(=O)COc1ccc2c(ccn2C(=O)C=C)c1 [NAIA-5]
HepG2 cell lysates; 10 μM, 1 h
  number of different proteins with profiled cysteines: 3,394
  number of proteins also labeled by IAA (overlap): 905
  number of proteins uniquely profiled (not by IAA): 2,489
  population of cysteines profiled in aggregate: 6,387
  average number of peptides with probe modifications: 5,269
HepG2 cell lysates
  labeled proteins not on the list of DrugBank (non-DrugBank proteins): 84%
HepG2 cell lysates; Gene Ontology analysis
  number of GO biological processes unique for the probe, not found in IAA profiling: 650

## C#CCCCCNC(=O)CI [IAA, N-Hex-5-ynyl-2-iodoacetamide, reference compound]
231MFP cell lysates; 100 μM, 1 h, MudPIT
  number of probe-modified peptides: 6,104
  population of cysteines profiled: 3,072
HepG2 cell lysates; 10 μM, 1 h
  population of cysteines profiled in aggregate: 1,257
  average number of peptides with probe modifications: 957
HepG2 cell lysates
  labeled proteins not on the list of DrugBank (non-DrugBank proteins): 76%
